# Some results were stated once for a whole list of compounds, not compound by compound.
# System: NCI-H460-GFP cells
# Assay: Apoptosis assay (EGFP/FACS) in NCI-H460-GFP cells
# Type: cell-based, human
# Settings: data not shown
# Experimental: The following human cell line was used: MDA-MB-231 (ATCC: HTB-26). In addition the following enhanced green fluorescent protein (EGFP)-transfected human cell lines were used: NCI-H460 (ATCC: HTB-177) (H460GFP) and Jurkat (ATCC: TIB-152) (JurkatGFP). NCI-H460 and Jurkat cell lines were cultured in RPMI-1640 tissue culture medium containing 10% (v/v) fetal calf serum, 2 mM glutamine, non-essential amino acids and 50 μg/ml penicillin/streptomycin (Complete medium) (Sigma, Buchs, Switzerland). […]
# The assays were performed in commercially available sterile 96-well U-bottom or 24-well flat-bottom tissue culture plates (Falcon). […] For time course experiments with Jurkat cells, the 96-well plates were removed shortly at the indicated time from the incubator, shaken in order to suspend the cells and an aliquot of 200 μl cell suspension was then transferred to a 96-well U-bottom plate and measured immediately on a fluorescence-activated cell sorting (FACS)-Canto II with a high through-put sampler (HTS)-module. […]
# The quantification of the relative amount of apoptotic cells within a cell population was determined according to the Reference of Strebel et al., Cytometry 2001, 43(2), Green Fluorescent Protein as Novel Tool to Measure Apoptosis and Necrosis). […] As a readout the relative abundance of the cells belonging to M2 (apoptotic population) were expressed.
smiles,measurement,value
"N#CCCNc1nonc1-c1nc2ccccc2n1CC(=O)c1ccc(N)cc1 [BAL27862, 3-(4-{1-[2-(4-Amino-phenyl)-2-oxo-ethyl]-1H-benzoimidazol-2-yl}-furazan-3-ylamino)-propionitrile]",maximum apoptosis induction,80-90%

# Source: patent publication US11419856B2, “Pharmaceutical combinations for use in the treatment of neoplastic diseases” (Basilea Pharmaceutica International AG, priority 2017, dated 2022)
